Library screening results

Protein sequences, listed by entry. Tags and fused reporters are not part of them.
UniProt E9BF75, entry or part of it: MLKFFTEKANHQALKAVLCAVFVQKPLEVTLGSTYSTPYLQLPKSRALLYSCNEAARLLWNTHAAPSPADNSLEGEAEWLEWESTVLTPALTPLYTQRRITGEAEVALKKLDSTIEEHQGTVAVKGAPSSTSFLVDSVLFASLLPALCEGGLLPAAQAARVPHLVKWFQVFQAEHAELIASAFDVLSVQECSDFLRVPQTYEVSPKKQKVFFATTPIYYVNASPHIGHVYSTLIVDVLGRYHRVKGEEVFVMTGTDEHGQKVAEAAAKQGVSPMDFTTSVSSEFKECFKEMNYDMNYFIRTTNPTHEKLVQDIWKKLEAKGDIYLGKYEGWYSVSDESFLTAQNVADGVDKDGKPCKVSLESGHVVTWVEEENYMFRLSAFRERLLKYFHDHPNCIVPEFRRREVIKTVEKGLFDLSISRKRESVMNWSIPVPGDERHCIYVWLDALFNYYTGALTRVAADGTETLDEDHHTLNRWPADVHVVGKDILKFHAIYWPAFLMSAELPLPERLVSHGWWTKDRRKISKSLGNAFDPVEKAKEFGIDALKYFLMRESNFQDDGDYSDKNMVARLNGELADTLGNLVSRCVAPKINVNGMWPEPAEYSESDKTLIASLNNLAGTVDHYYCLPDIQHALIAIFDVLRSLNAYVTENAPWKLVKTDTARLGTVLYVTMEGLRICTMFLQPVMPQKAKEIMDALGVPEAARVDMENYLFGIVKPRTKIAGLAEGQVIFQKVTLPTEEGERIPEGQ

The values are deposited in ChEMBL (CHEMBL3988442, “University of Dundee, Small-Polar-MMV Screening Library” (2021)).

All values are in %. How 0% and 100% were set is not recorded. Most values in the screen are low, and negative values occur. The compounds are a random part of those screened.

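Primary screen of methionyl-tRNA synthetase; the read-out is not stated. Target: Methionyl-tRNA synthetase (putative), Leishmania donovani (UniProt E9BF75). The test concentration is not given. Values are per cent inhibition. About 68,000 compounds were tested under these conditions; 0.035% (about 24) showed 50% or more at least once.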

compound	inhibition
CCc1ncc2c(n1)CN(c1nc(C)ccc1C(=O)O)C2	16.62
Cc1cc(NCc2nnc3n2CCCCC3)n2nc(C)c(C)c2n1	19.05
CCCN1CCN(C(=O)C(C)n2cc(Br)cn2)CC1 (stereo unspecified)	7.874
CCOCc1cncc2c1CCN(S(=O)(=O)c1cccc(C)c1)C2	10.8
CNc1ncc(CN(C)c2ncnc3onc(C)c23)cn1	3.846
c1cnc(NC2COC3(CCN(Cc4ccoc4)CC3)C2)nc1 (stereo unspecified)	15.57
Cc1cccc(S(=O)(=O)N2CSCC2C(=O)NC(C)(C)C)c1 (stereo unspecified)	3.663
Cc1cc(C2CCCN2C(=O)CN2CC3(CCNCC3)OC2=O)on1 (stereo unspecified)	0
O=C1[C@H]2CN(C3CCOCC3)C[C@H]2CN1Cc1ccncc1	10.65
c1ccc(Cc2cncc(C3CCCN3C3CCOCC3)n2)cc1 (stereo unspecified)	13.98
CCc1noc(CN2CCN(C(=O)COC)CC2)n1	3.099
CC(Cc1c(F)cccc1F)NC(=O)Nc1cnn(CC(N)=O)c1 (stereo unspecified)	13.19
Cc1cc(C(=O)Nc2nc3c(s2)CN(S(=O)(=O)C2CC2)CC3)c(C)o1	18.1
Cc1ccc(S(=O)(=O)N2CCC3(CC(C(=O)NC4CCC4)=NO3)C2)cc1 (stereo unspecified)	8.497
COc1ccc(CNC(=O)Nc2ccc(S(=O)(=O)C(F)F)cc2)cc1	21.55
Cc1nc(C(=O)N(CC2CCCO2)c2ccncc2)cs1 (stereo unspecified)	9.044
NC(=O)C1CCN(C(=O)NCc2ccccc2Cn2cncn2)CC1	6.884
CCN(Cc1noc(CC(C)C)n1)Cc1ccccc1C(=O)O	10
N#Cc1ccccc1N1CCN(C(=O)NCC(=O)N2CCCC2)CC1	3.846
COCc1ccccc1NC(=O)[C@@H]1CCCN1C(=O)c1ccco1	7.965
COc1ccc(NC(=O)N2CCOCC(CN(C)C)C2)c(C)c1 (stereo unspecified)	6.383
COc1ccc(OC2CCN(C(=O)CCc3n[nH]c(N)n3)CC2)cc1	1.875
CC(OCC1CC1)C(=O)NCc1cccc(CN2CCN(C)CC2)c1 (stereo unspecified)	-1.95
Cn1ccnc1CN1CCC(Cn2cc(-c3ccccc3)nn2)CC1	10.47
CC(C)(C)c1nc(CC(=O)NC2CCN(C3CC3)C2)cs1 (stereo unspecified)	11.29
COC(=O)N1CCC2(CC1)CC(c1ccccc1)CN(C)C2 (stereo unspecified)	12.09
CCC(CNC(=O)CNC(C)=O)Oc1cccc(F)c1 (stereo unspecified)	16.91
Cc1ccc(N2CCOCC3(CCCN(c4ncc(F)cn4)C3)C2)nn1 (stereo unspecified)	-5.521
Cc1nc2cc(O)nn2c(C)c1CCC(=O)NCCCC(C)C	9.402
c1cnc(N2CCOCC3(C2)CN(c2nccs2)CCO3)nc1 (stereo unspecified)	16.25
CS(=O)(=O)NC[C@]12COC[C@H]1CN(C(=O)C1CC=CC1)C2	-1.034
O=C(CCCN1CCOC1=O)Nc1cnn(-c2ccccc2Cl)c1	16.76
COC(=O)CCSc1nncn1-c1ccc(OC)nc1	1.592
CC(C)C(NC(=O)c1ccc(N2CCOCC2)nc1)c1cccs1 (stereo unspecified)	11.17
CC(=O)Nc1nc(C(=O)N2CCC(Nc3cccnn3)CC2)cs1	5.744
COCCN1C(=O)[C@H]2CC[C@@H]1CN(C(=O)Cc1c(F)cccc1Cl)C2	7.666
CCC(NC(=O)Cn1ccc(=O)n(C)c1=O)c1ccccc1OC (stereo unspecified)	13.17
CCCc1nc(C(C)(C)NC(=O)c2ccnn2C)no1	6.684
Cc1ccc(-c2nc(C3CCN(C(=O)c4ccn(C)n4)CC3)no2)cn1	16.67
Cc1ccc(CN2CCCC3(CCN(S(=O)(=O)N(C)C)C3)C2)o1 (stereo unspecified)	13.59
Cc1ccc(C(=O)Nc2cc(F)ccc2OCC2CCCO2)cn1 (stereo unspecified)	15.46
Cc1noc2ncc(S(=O)(=O)Nc3cc(CC(C)(C)C)[nH]n3)cc12	8.493
Cc1nc(-c2cnn(C)c2)sc1C(=O)NCc1cccc(CN(C)C)c1	28.77
Cc1cc(C)c(CN2CCCC23Cc2ccccc2CNC3=O)c(C)c1 (stereo unspecified)	12
CCC1CN(c2nnc(C)c(C)c2C#N)CCO1 (stereo unspecified)	11.22
CNC(=O)c1ccc(CNc2ccncc2Cl)cc1	13.17
CCC1CCN(CCn2cnc3c(C)csc3c2=O)CC1	16.03
COCCCN1CCCN(C(C)C(=O)Nc2cccc(I)c2)CC1 (stereo unspecified)	2.857
CN(C)C(=O)N1CCN(Cc2cnn(C)c2)CC2(CNC(=O)C2)C1 (stereo unspecified)	11.11
c1cn(CCNc2nc(NC3CC3)nc3c2CCNCC3)nn1	17.08
O=C(N[C@H]1CN2CCC1CC2)c1cc(Cn2cnc3ccccc32)[nH]n1	19.64
CCn1ccnc1CN1CCCN(C(=O)c2sccc2C#N)CC1	6.103
COCCNC(=O)[C@@H]1CCO[C@@H]2CCN(c3ccc(C)nn3)C[C@@H]21	12.38
O=C(NC1CCCN(c2ccc(OC(F)F)cc2)C1)c1cnccn1 (stereo unspecified)	17.38
Cc1cnc(CNC(=O)CCCn2cnc3ccccc3c2=O)cn1	2.151
O=C(NCc1cccc(F)c1)NCC(O)c1cccc(F)c1 (stereo unspecified)	13.11
CN1CCC(N2CCC[C@H]2c2nc(-c3cncnc3N)no2)CC1	-0.339
Fc1cnc(N2CC3(CCN(CC4CC4)C3)C2)nc1	-9.273
Cc1cnc(-c2nc(C3CCN(Cc4ccccc4Cl)CC3)no2)cn1	11.21
Cn1cc(C(=O)CC2CCCN2C(=O)c2cccc3ncccc23)cn1 (stereo unspecified)	3.419
c1cnc(Nc2cc(CCC3CCNCC3)ccn2)cn1	14.92
O=C1[C@@H]2CCN(Cc3ccccn3)C[C@@H]2OCCN1c1ccccc1	19.23
Cc1ccc(N2C(=O)N[C@@H]3CCN(C(=O)C4CCCC4)[C@@H]3C2=O)cc1	4.396
CC(=O)c1ccc(C(=O)N2CCC(c3cc(O)nc(C)n3)CC2)s1	12.94
Cn1nnc2c1C(COCC1CC1)CN(C(=O)C1=CCCC1)C2 (stereo unspecified)	17.37
Cc1nn(C)c(C)c1CC(=O)N1CCCC1Cn1cccn1 (stereo unspecified)	12.26
O=c1oc(-c2ccc(F)cc2)nn1CN1CCN(C2CCCC2)CC1	17.41

Repeated from the top, 4 entries:

compound,inhibition
CCc1ncc2c(n1)CN(c1nc(C)ccc1C(=O)O)C2,16.62
Cc1cc(NCc2nnc3n2CCCCC3)n2nc(C)c(C)c2n1,19.05
CCCN1CCN(C(=O)C(C)n2cc(Br)cn2)CC1 (stereo unspecified),7.874
CCOCc1cncc2c1CCN(S(=O)(=O)c1cccc(C)c1)C2,10.8